Values of other authors, collected in patent US12117453B2, “Predicting patient response to sodium channel blockers” (Washington University, priority 2018, dated 2024).
Some of these results come from one statement about several compounds together.

Tested on: patients
Conditions: CAST, patients treated with encainide or flecainide; cited from earlier work

Row | SMILES | likelihood of adverse events versus placebo
1 | COc1ccc(C(=O)Nc2ccccc2CCC2CCCCN2C)cc1 (centres unmarked) [encainide] | 2-3 times
2 | O=C(NCC1CCCCN1)c1cc(OCC(F)(F)F)ccc1OCC(F)(F)F (centres unmarked) [flecainide] | 2-3 times
